What all share (test): phage ELISA (anti-M13-HRP, absorbance at 450 nm), proteins coated at 5 µg/ml
Background: An ELISA detects its analyte on a solid surface through an enzyme-linked reagent.

Test [1] addresses Avidin.
Test [2] has as its target Myoglobin.
In test [3] the target is Visfatin.
The target of test [4] is lysozyme.
For test [5], the target named is CD7.

No constants are given. Whether binding was seen depends on the method and setting.

B1: Peptide 1 specific to nAchR (peptide)
peptide: EASFWLGSWTWENGKWTWKGKGTLNR
Turning to B1, the binding result in test [1] and in test [2] was “no binding” throughout.

B2: Peptide 2 specific to fibronectin ED-B (peptide)
peptide: HCSSAVGSWTWENGKWTWKGIIRLEQ
B2: the binding result in test [2], in test [3] and in test [4] was “no binding” in each case.

B3: Peptide 1 specific to MyD88 (peptide)
peptide: HSHAFYGSWTWENGKWTWKGNPGWWT
With B3, in test [5], the binding result is listed as “no binding”.

B4: Peptide 1 specific to HSA (peptide)
peptide: AASPYKGSWTWENGKWTWKGGWRMKM
As for B4, in test [3], the binding entry is “no binding”.

B5: Peptide 1 specific to VEGF (peptide)
peptide: HANFFQGSWTWENGKWTWKGWKYNQS
Turning to B5, the binding entry in test [1] is reported as “no binding”.

B6: Peptide 1 specific to VCAM1 (peptide)
peptide: QARDCTGSWTWENGKWTWKGPSICPI
Take B6: the binding result in test [2] and in test [4] was “no binding” each time.

Source of the values: US20120321697A1, “BPB-BASED CARGO DELIVERY SYSTEM” (GWANGJU INSTITUTE OF SCIENCE AND TECHNOLOGY, priority 2009, published 2012).
